# Reference: ChEMBL document CHEMBL1155912, “Synthesis of 6- or 4-functionalized indoles via a reductive cyclization approach and evaluation as aromatase inhibitors” (Bioorg Med Chem Lett, 2008)
# Target: T1, Aromatase (Homo sapiens, UniProt P11511)
# T1 sequence (P11511 whole entry): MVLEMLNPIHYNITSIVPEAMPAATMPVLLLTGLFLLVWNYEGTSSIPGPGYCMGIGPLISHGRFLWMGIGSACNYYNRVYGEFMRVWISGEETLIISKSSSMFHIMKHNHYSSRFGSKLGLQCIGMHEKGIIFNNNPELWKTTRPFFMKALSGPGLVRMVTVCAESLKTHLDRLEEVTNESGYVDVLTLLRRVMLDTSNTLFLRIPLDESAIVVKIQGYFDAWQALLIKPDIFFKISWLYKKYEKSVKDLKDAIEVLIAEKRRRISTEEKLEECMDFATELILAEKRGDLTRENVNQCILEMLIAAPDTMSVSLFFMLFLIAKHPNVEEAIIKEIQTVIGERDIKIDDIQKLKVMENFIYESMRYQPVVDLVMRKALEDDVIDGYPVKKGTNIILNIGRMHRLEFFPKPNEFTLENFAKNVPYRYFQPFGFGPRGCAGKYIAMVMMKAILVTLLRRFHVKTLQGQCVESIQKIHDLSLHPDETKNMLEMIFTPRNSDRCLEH
# Format: microsomes, Placenta, Microsomes
structure (smiles),measurement,value
CC(C)(C#N)c1cc(Cn2cncn2)cc(C(C)(C)C#N)c1 [ANASTROZOLE],IC50,10 nM
